Values after ≈ are worked out from the molar mass of the structure shown. At least one peptide structure holds a part that was inferred or is arguable (an end, a ring closure or a residue). Where a SMILES comes first, the peptide text is derived from it.
Test system: murine P388 lymphocytic leukemia (PS system) cell line
Assay: P388 murine lymphocytic leukemia (PS system) cell line growth inhibition
Assay type: cell-based

## CC[C@H](C)[C@@H]1NC(=O)[C@H](CC(C)C)NC(=O)[C@@H]2CCCN2C(=O)[C@H]([C@@H](C)CC)NC(=O)[C@@H]2CCCN2C(=O)[C@H](CO)NC(=O)[C@H](Cc2ccccc2)NC1=O [stylostatin 2, cyclo (Pro-Leu-Ile-Phe-Ser-Pro-Ile)] (cyclo(FSPIPLI))
  ED50 P388: 0.022 µg/mL (≈ 0.0286 µM)

Reference: patent publication US5494893A, “Stylostatin 2” (Arizona Board of Regents, a body corporate acting on behalf …, priority 1994, dated 1996)
